From the supplement of paper PMC9233669
Variants at the floor of the assay are shown more often than the library holds them.

Key:
biotinyl-Ile-oxazolone = assay: self-aminoacylation, catalytic enhancement (BIO) (fold over background); higher = more active; k-Seq, kA / k0A0; sequences stand for … in GGGAAUGGAUCCACAUCUACGAAUUC…UUCACUGCAGACUUGACGAAGCUG
How it was run: (§1)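 The uncatalyzed rate is the low-activity peak of a bimodal Gaussian fit, and catalytic enhancement is median kA divided by it. The kA values came from pseudo-first-order fits, with 1000 bootstraps, of per-sequence fraction reacted measured by streptavidin capture, triplicate qPCR and Illumina sequencing. Mutagenized RNA pools with a 21-nt variable region (0.43 μM) were reacted with each biotinyl-aminoacyl-oxazolone at 2–1250 μM in 50 μL HEPES/NaCl/KCl/MgCl2/CaCl2 buffer with 5% acetonitrile, pH 6.9–7.0, for 90 minutes at room temperature.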

biotinyl-Phe-oxazolone = assay: self-aminoacylation, catalytic enhancement (BFO) (fold over background); higher = more active; k-Seq, kA / k0A0; sequences stand for … in GGGAAUGGAUCCACAUCUACGAAUUC…UUCACUGCAGACUUGACGAAGCUG
How it was run: as §1

biotinyl-Met-oxazolone = assay: self-aminoacylation, catalytic enhancement (BMO) (fold over background); higher = more active; k-Seq, kA / k0A0; sequences stand for … in GGGAAUGGAUCCACAUCUACGAAUUC…UUCACUGCAGACUUGACGAAGCUG
How it was run: as §1

biotinyl-Val-oxazolone = assay: self-aminoacylation, catalytic enhancement (BVO) (fold over background); higher = more active; k-Seq, kA / k0A0; sequences stand for … in GGGAAUGGAUCCACAUCUACGAAUUC…UUCACUGCAGACUUGACGAAGCUG
How it was run: as §1

biotinyl-Trp-oxazolone = assay: self-aminoacylation, catalytic enhancement (BWO) (fold over background); higher = more active; k-Seq, kA / k0A0; sequences stand for … in GGGAAUGGAUCCACAUCUACGAAUUC…UUCACUGCAGACUUGACGAAGCUG
How it was run: as §1

biotinyl-Leu-oxazolone = assay: self-aminoacylation, catalytic enhancement (BLO) (fold over background); higher = more active; k-Seq, kA / k0A0; sequences stand for … in GGGAAUGGAUCCACAUCUACGAAUUC…UUCACUGCAGACUUGACGAAGCUG
How it was run: as §1

Row | Sequence | self-aminoacylation (biotinyl-Ile-oxazolone) | self-aminoacylation (biotinyl-Phe-oxazolone) | self-aminoacylation (biotinyl-Met-oxazolone) | self-aminoacylation (biotinyl-Val-oxazolone) | self-aminoacylation (biotinyl-Trp-oxazolone) | self-aminoacylation (biotinyl-Leu-oxazolone)
1 | CUACUCCAAACAAUCGGUCGG [Fam1A.1 aminoacylation ribozyme variant] | 1.13 | 0.931 | 1.51 | 1.21 | 0.927 | 1.62
2 | CUACUCCAAACAAUCGUUCUG [Fam1A.1 aminoacylation ribozyme variant] | 0.599 | 0.796 | 0.545 | 0.594 | 0.457 | 0.675
3 | CUACUGCAAACAAUCGGUAUG [Fam1A.1 aminoacylation ribozyme variant] | 0.864 | 0.575 | 0.878 | 0.91 | 1.06 | 0.764
4 | CUACUGCAAACAAUCUGUCUG [Fam1A.1 aminoacylation ribozyme variant] | 0.67 | 0.948 | 0.629 | 0.668 | 0.52 | 0.571
5 | CUACUGCAAGCAAUCGGUCUG [Fam1A.1 aminoacylation ribozyme variant] | 1.08 | 1.21 | 0.977 | 1.02 | 0.845 | 0.944
6 | CUACUGCACACAAUCGGUCUG [Fam1A.1 aminoacylation ribozyme variant] | 0.869 | 1.61 | 0.663 | 0.779 | 1.17 | 0.81
7 | CUACUGCGAACAAUCGGUCUG [Fam1A.1 aminoacylation ribozyme variant] | 0.874 | 0.697 | 1.34 | 0.938 | 0.715 | 1.01
8 | CUACUUAAAACAACCGGUCUG [Fam1A.1 aminoacylation ribozyme variant] | 1 | 0.544 | 1.19 | 0.91 | 0.742 | 0.929
9 | CUACUUAAAAGAAUCGGUCUG [Fam1A.1 aminoacylation ribozyme variant] | 0.885 | 0.707 | 0.769 | 0.882 | 0.595 | 0.787
10 | CUACUUAAUACAAUCGGUCUG [Fam1A.1 aminoacylation ribozyme variant] | 0.782 | 0.835 | 0.89 | 0.849 | 0.631 | 0.761
11 | CUACUUCAAAAAAACGGUCUG [Fam1A.1 aminoacylation ribozyme variant] | 0.791 | 0.809 | 0.713 | 0.685 | 0.553 | 0.693
12 | CUACUUCAAAAAAUCGGUCUC [Fam1A.1 aminoacylation ribozyme variant] | 0.86 | 8.87 | 0.693 | 0.712 | 5.93 | 0.755
13 | CUACUUCAAAAAAUGGGUCUG [Fam1A.1 aminoacylation ribozyme variant] | 0.997 | 0.618 | 0.964 | 0.727 | 0.796 | 0.942
14 | CUACUUCAAACAAACCGUCUG [Fam1A.1 aminoacylation ribozyme variant] | 0.94 | 0.619 | 0.825 | 0.786 | 0.899 | 0.63
15 | CUACUUCAAACAAACGCUCUG [Fam1A.1 aminoacylation ribozyme variant] | 0.627 | 0.48 | 0.567 | 0.788 | 0.502 | 0.559
16 | CUACUUCAAACAACCGGACUG [Fam1A.1 aminoacylation ribozyme variant] | 0.99 | 1.11 | 0.791 | 0.855 | 0.51 | 0.7
17 | CUACUUCAAACAAUAGGCCUG [Fam1A.1 aminoacylation ribozyme variant] | 0.727 | 1.06 | 0.534 | 0.79 | 0.524 | 0.688
18 | CUACUUCAAACAAUAGGUCCG [Fam1A.1 aminoacylation ribozyme variant] | 0.645 | 0.734 | 0.585 | 0.551 | 0.348 | 0.564
19 | CUACUUCAAACAAUAGGUUUG [Fam1A.1 aminoacylation ribozyme variant] | 0.789 | 0.819 | 0.583 | 0.686 | 0.528 | 0.749
20 | CUACUUCAAACAAUAUGUCUG [Fam1A.1 aminoacylation ribozyme variant] | 0.805 | 1.13 | 0.648 | 0.81 | 0.505 | 0.697
21 | CUACUUCAAACAAUCGAACUG [Fam1A.1 aminoacylation ribozyme variant] | 0.683 | 0.805 | 0.617 | 0.595 | 0.468 | 0.595
22 | CUACUUCAAACAAUCGGGAUG [Fam1A.1 aminoacylation ribozyme variant] | 0.904 | 5.85 | 0.844 | 1.02 | 4.46 | 1.19
23 | CUACUUCAAACAAUCGGGCAG [Fam1A.1 aminoacylation ribozyme variant] | 0.742 | 1.06 | 0.864 | 0.898 | 0.704 | 0.818
24 | CUACUUCAAACAAUCGUUCUC [Fam1A.1 aminoacylation ribozyme variant] | 0.466 | 1.2 | 0.483 | 0.642 | 0.523 | 0.435
25 | CUACUUCAAACACUAGGUCUG [Fam1A.1 aminoacylation ribozyme variant] | 0.774 | 0.602 | 0.592 | 0.862 | 0.492 | 0.607
26 | CUACUUCAAACACUCGGUCUG [Fam1A.1 aminoacylation ribozyme variant] | 0.906 | 0.87 | 0.828 | 0.969 | 0.787 | 0.829
